# The other results are listed elsewhere or left out.
# How the values were obtained:
# Assay in all cases: glycan array binding signal (z-score within array); higher = stronger binding
# Conditions in all cases: glycan notation: IUPAC condensed, linker removed
# [1] = molecular target: GlcNAc(b1-2)[GlcNAc(b1-4)]Man(a1-3)[GlcNAc(b1-4)][GlcNAc(b1-2)[GlcNAc(b1-6)]Man(a1-6)]Man(b1-4)GlcNAc(b1-4)GlcNAc
# Method in brief: (§1)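 Glycan array data came from 3228 arrays in the Consortium for Functional Glycomics database, and only arrays with an available protein sequence were kept. Glycan names were put into IUPAC-condensed notation, and columns mapping to the same glycan were averaged. The binding signal is a within-array Z-score, averaged across arrays of one protein sequence run at different concentrations or buffers and across linkers. A negative Z-score can be read as non-binding.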
# [2] = molecular target: GlcNAc(b1-2)[GlcNAc(b1-4)]Man(a1-3)[GlcNAc(b1-4)][GlcNAc(b1-2)[GlcNAc(b1-6)]Man(a1-6)]Man(b1-4)GlcNAc(b1-4)[Fuc(a1-6)]GlcNAc
# Method in brief: as §1
# [3] = molecular target: GlcNAc(b1-2)[GlcNAc(b1-6)]Man(a1-6)[GlcNAc(b1-2)Man(a1-3)]Man(b1-4)GlcNAc(b1-4)GlcNAc
# Method in brief: as §1
# [4] = molecular target: GlcNAc(b1-2)[GlcNAc(b1-6)]Man(a1-6)[GlcNAc(b1-2)Man(a1-3)]Man(b1-4)GlcNAc(b1-4)[Fuc(a1-6)]GlcNAc
# Method in brief: as §1
# [5] = molecular target: GlcNAc(b1-2)[GlcNAc(b1-6)]Man(a1-6)[GlcNAc(b1-4)][GlcNAc(b1-2)Man(a1-3)]Man(b1-4)GlcNAc(b1-4)GlcNAc
# Method in brief: as §1
# [6] = molecular target: GlcNAc(b1-3)Fuc
# Method in brief: as §1
# [7] = molecular target: GlcNAc(b1-3)Gal
# Method in brief: as §1
# [8] = molecular target: GlcNAc(b1-3)Gal(b1-3)GalNAc
# Method in brief: as §1
# [9] = molecular target: GlcNAc(b1-3)Gal(b1-4)Glc
# Method in brief: as §1
# [10] = molecular target: GlcNAc(b1-3)Gal(b1-4)GlcNAc
# Method in brief: as §1
# [11] = molecular target: GlcNAc(b1-3)Gal(b1-4)GlcNAc(b1-2)Man(a1-3)[GlcNAc(b1-3)Gal(b1-4)GlcNAc(b1-2)Man(a1-6)]Man(b1-4)GlcNAc(b1-4)GlcNAc
# Method in brief: as §1
# [12] = molecular target: GlcNAc(b1-3)Gal(b1-4)GlcNAc(b1-2)Man(a1-3)[GlcNAc(b1-3)Gal(b1-4)GlcNAc(b1-2)Man(a1-6)]Man(b1-4)GlcNAc(b1-4)[Fuc(a1-6)]GlcNAc
# Method in brief: as §1
# [13] = molecular target: GlcNAc(b1-3)Gal(b1-4)GlcNAc(b1-2)[GlcNAc(b1-3)Gal(b1-4)GlcNAc(b1-6)]Man(a1-6)[GlcNAc(b1-3)Gal(b1-4)GlcNAc(b1-2)Man(a1-3)]Man(b1-4)GlcNAc(b1-4)GlcNAc
# Method in brief: as §1
# [14] = molecular target: GlcNAc(b1-3)Gal(b1-4)GlcNAc(b1-3)Gal(b1-4)GlcNAc
# Method in brief: as §1
# [15] = molecular target: GlcNAc(b1-3)Gal(b1-4)GlcNAc(b1-3)Gal(b1-4)GlcNAc(b1-2)Man(a1-3)[GlcNAc(b1-3)Gal(b1-4)GlcNAc(b1-3)Gal(b1-4)GlcNAc(b1-2)Man(a1-6)]Man(b1-4)GlcNAc(b1-4)GlcNAc
# Method in brief: as §1
# [16] = molecular target: GlcNAc(b1-3)Gal(b1-4)GlcNAc(b1-3)Gal(b1-4)GlcNAc(b1-2)Man(a1-3)[GlcNAc(b1-3)Gal(b1-4)GlcNAc(b1-3)Gal(b1-4)GlcNAc(b1-2)Man(a1-6)]Man(b1-4)GlcNAc(b1-4)[Fuc(a1-6)]GlcNAc
# Method in brief: as §1
# [17] = molecular target: GlcNAc(b1-3)Gal(b1-4)GlcNAc(b1-3)Gal(b1-4)GlcNAc(b1-2)[GlcNAc(b1-3)Gal(b1-4)GlcNAc(b1-3)Gal(b1-4)GlcNAc(b1-6)]Man(a1-6)[GlcNAc(b1-3)Gal(b1-4)GlcNAc(b1-3)Gal(b1-4)GlcNAc(b1-2)Man(a1-3)]Man(b1-4)GlcNAc(b1-4)[Fuc(a1-6)]GlcNAc
# Method in brief: as §1
# [18] = molecular target: GlcNAc(b1-3)Gal(b1-4)GlcNAc(b1-3)Gal(b1-4)GlcNAc(b1-3)Gal(b1-4)GlcNAc(b1-2)Man(a1-3)[GlcNAc(b1-3)Gal(b1-4)GlcNAc(b1-3)Gal(b1-4)GlcNAc(b1-3)Gal(b1-4)GlcNAc(b1-2)Man(a1-6)]Man(b1-4)GlcNAc(b1-4)GlcNAc
# Method in brief: as §1
# [19] = molecular target: GlcNAc(b1-3)Gal(b1-4)GlcNAc(b1-3)Gal(b1-4)GlcNAc(b1-3)Gal(b1-4)GlcNAc(b1-2)Man(a1-3)[GlcNAc(b1-3)Gal(b1-4)GlcNAc(b1-3)Gal(b1-4)GlcNAc(b1-3)Gal(b1-4)GlcNAc(b1-2)Man(a1-6)]Man(b1-4)GlcNAc(b1-4)[Fuc(a1-6)]GlcNAc
# Method in brief: as §1
# [20] = molecular target: GlcNAc(b1-3)Gal(b1-4)GlcNAc(b1-3)Gal(b1-4)GlcNAc(b1-3)Gal(b1-4)GlcNAc(b1-2)[GlcNAc(b1-3)Gal(b1-4)GlcNAc(b1-3)Gal(b1-4)GlcNAc(b1-3)Gal(b1-4)GlcNAc(b1-6)]Man(a1-6)[GlcNAc(b1-3)Gal(b1-4)GlcNAc(b1-3)Gal(b1-4)GlcNAc(b1-3)Gal(b1-4)GlcNAc(b1-2)Man(a1-3)]Man(b1-4)GlcNAc(b1-4)[Fuc(a1-6)]GlcNAc
# Method in brief: as §1
# [21] = molecular target: GlcNAc(b1-3)Gal(b1-4)GlcNAc(b1-3)Gal(b1-4)GlcNAc(b1-3)Gal(b1-4)GlcNAc(b1-3)Gal(b1-4)GlcNAc(b1-2)Man(a1-3)[GlcNAc(b1-3)Gal(b1-4)GlcNAc(b1-3)Gal(b1-4)GlcNAc(b1-3)Gal(b1-4)GlcNAc(b1-3)Gal(b1-4)GlcNAc(b1-2)Man(a1-6)]Man(b1-4)GlcNAc(b1-4)GlcNAc
# Method in brief: as §1
# [22] = molecular target: GlcNAc(b1-3)Gal(b1-4)GlcNAc(b1-3)Gal(b1-4)GlcNAc(b1-3)Gal(b1-4)GlcNAc(b1-3)Gal(b1-4)GlcNAc(b1-2)Man(a1-3)[GlcNAc(b1-3)Gal(b1-4)GlcNAc(b1-3)Gal(b1-4)GlcNAc(b1-3)Gal(b1-4)GlcNAc(b1-3)Gal(b1-4)GlcNAc(b1-2)Man(a1-6)]Man(b1-4)GlcNAc(b1-4)[Fuc(a1-6)]GlcNAc
# Method in brief: as §1
# [23] = molecular target: GlcNAc(b1-3)Gal(b1-4)GlcNAc(b1-3)Gal(b1-4)GlcNAc(b1-3)Gal(b1-4)GlcNAc(b1-3)Gal(b1-4)GlcNAc(b1-2)[GlcNAc(b1-3)Gal(b1-4)GlcNAc(b1-3)Gal(b1-4)GlcNAc(b1-3)Gal(b1-4)GlcNAc(b1-3)Gal(b1-4)GlcNAc(b1-6)]Man(a1-6)[GlcNAc(b1-3)Gal(b1-4)GlcNAc(b1-3)Gal(b1-4)GlcNAc(b1-3)Gal(b1-4)GlcNAc(b1-3)Gal(b1-4)GlcNAc(b1-2)Man(a1-3)]Man(b1-4)GlcNAc(b1-4)[Fuc(a1-6)]GlcNAc
# Method in brief: as §1
# [24] = molecular target: GlcNAc(b1-3)Gal(b1-4)GlcNAc(b1-3)Gal(b1-4)GlcNAc(b1-3)GalNAc
# Method in brief: as §1
# [25] = molecular target: GlcNAc(b1-3)Gal(b1-4)GlcNAc(b1-3)GalNAc
# Method in brief: as §1
# [26] = molecular target: GlcNAc(b1-3)Gal(b1-4)GlcNAc(b1-3)[GlcNAc(b1-3)Gal(b1-4)GlcNAc(b1-3)]GalNAc
# Method in brief: as §1
# [27] = molecular target: GlcNAc(b1-3)Gal(b1-4)GlcNAc(b1-6)[Gal(b1-3)]GalNAc
# Method in brief: as §1
# [28] = molecular target: GlcNAc(b1-3)Gal(b1-4)GlcNAc(b1-6)[GlcNAc(b1-3)Gal(b1-3)]GalNAc
# Method in brief: as §1
# [29] = molecular target: GlcNAc(b1-3)Gal(b1-4)GlcNAc(b1-6)[GlcNAc(b1-3)]Gal(b1-4)GlcNAc
# Method in brief: as §1
# [30] = molecular target: GlcNAc(b1-3)GalNAc
# Method in brief: as §1
# [31] = molecular target: GlcNAc(b1-3)Man
# Method in brief: as §1
# [32] = molecular target: GlcNAc(b1-3)[GlcNAc(b1-4)][GlcNAc(b1-6)]GlcNAc
# Method in brief: as §1
# [33] = molecular target: GlcNAc(b1-3)[GlcNAc(b1-6)]Gal(b1-4)GlcNAc
# Method in brief: as §1
# [34] = molecular target: GlcNAc(b1-3)[GlcNAc(b1-6)]GalNAc
# Method in brief: as §1
# [35] = molecular target: GlcNAc(b1-4)Gal(b1-4)GlcNAc
# Method in brief: as §1
# [36] = molecular target: GlcNAc(b1-4)GlcNAc
# Method in brief: as §1
# [37] = molecular target: GlcNAc(b1-4)GlcNAc(b1-4)GlcNAc
# Method in brief: as §1
# [38] = molecular target: GlcNAc(b1-4)GlcNAc(b1-4)GlcNAc(b1-4)GlcNAc(b1-4)GlcNAc
# Method in brief: as §1
binder,measurement,setting,value
"AntigenI/IIA3VP1 (Streptococcus mutans), C9E3B4 (protein) AANEADYQAKLTAYQTELARVQKANADAKAAYEAAVAANNAANAALTAENTAIKKRNADAKADYEAKLAKYQADLAKYQKDLADYPVKLKAYEDEQASIKAALAELEKHKNEDGNLTEPSAQNLVYDLEPNANLSLTTDGKFLKASAVDDAFSKSTSKAKYDQKILQLDDLDITNLEQSNDVASSMELYGNFGDKAGWSTTVSNNSQVKWGSVLLERGQSATATYTNLQNSYYNGKKISKIVYKYTVDPKSKFQGQKVWLGIFTDPTLGVFASAYTGQVEKNTSIFIKNEFTFYDEDGKPINFDNALLSVASLNREHNSIEMAKDYSGKFVKISGSSIGEKNGMIYATDTLNFKQGEGGSRWTMYKNSQAGSGWDSSDAPNSWYGAGAIKMSGPNNYVTVGATSATNVMPVSDMPVVPGKDNTDGKKPNIWYSLNGKIRAVNVPKVTKEKPTPPVKPTAPTKPTYETEKPLKPAPVAPNYEKEPTPPTRLEHHHHHH",glycan array binding signal (z-score),[1],-0.895
same,glycan array binding signal (z-score),[2],-0.588
same,glycan array binding signal (z-score),[3],0.082
same,glycan array binding signal (z-score),[4],0.954
same,glycan array binding signal (z-score),[5],-0.814
same,glycan array binding signal (z-score),[6],-1.02
same,glycan array binding signal (z-score),[7],-0.153
same,glycan array binding signal (z-score),[8],-0.295
same,glycan array binding signal (z-score),[9],-1.25
same,glycan array binding signal (z-score),[10],0.116
same,glycan array binding signal (z-score),[11],-0.32
same,glycan array binding signal (z-score),[12],0.425
same,glycan array binding signal (z-score),[13],0.979
same,glycan array binding signal (z-score),[14],-0.33
same,glycan array binding signal (z-score),[15],2.19
same,glycan array binding signal (z-score),[16],0.478
same,glycan array binding signal (z-score),[17],-0.456
same,glycan array binding signal (z-score),[18],-0.017
same,glycan array binding signal (z-score),[19],0.51
same,glycan array binding signal (z-score),[20],1.96
same,glycan array binding signal (z-score),[21],1.13
same,glycan array binding signal (z-score),[22],3.23
same,glycan array binding signal (z-score),[23],0.602
same,glycan array binding signal (z-score),[24],-1
same,glycan array binding signal (z-score),[25],-0.624
same,glycan array binding signal (z-score),[26],-0.582
same,glycan array binding signal (z-score),[27],-0.907
same,glycan array binding signal (z-score),[28],0.271
same,glycan array binding signal (z-score),[29],-0.012
same,glycan array binding signal (z-score),[30],-0.71
same,glycan array binding signal (z-score),[31],-1.03
same,glycan array binding signal (z-score),[32],-0.954
same,glycan array binding signal (z-score),[33],-1.18
same,glycan array binding signal (z-score),[34],-0.557
same,glycan array binding signal (z-score),[35],-0.562
same,glycan array binding signal (z-score),[36],0.035
same,glycan array binding signal (z-score),[37],0.168
same,glycan array binding signal (z-score),[38],0.052

# Some of the entries so far, bar-delimited:
binder | measurement | setting | value
AntigenI/IIA3VP1 (Streptococcus mutans), C9E3B4 (protein) AANEADYQAKLTAYQTELARVQKANADAKAAYEAAVAANNAANAALTAENTAIKKRNADAKADYEAKLAKYQADLAKYQKDLADYPVKLKAYEDEQASIKAALAELEKHKNEDGNLTEPSAQNLVYDLEPNANLSLTTDGKFLKASAVDDAFSKSTSKAKYDQKILQLDDLDITNLEQSNDVASSMELYGNFGDKAGWSTTVSNNSQVKWGSVLLERGQSATATYTNLQNSYYNGKKISKIVYKYTVDPKSKFQGQKVWLGIFTDPTLGVFASAYTGQVEKNTSIFIKNEFTFYDEDGKPINFDNALLSVASLNREHNSIEMAKDYSGKFVKISGSSIGEKNGMIYATDTLNFKQGEGGSRWTMYKNSQAGSGWDSSDAPNSWYGAGAIKMSGPNNYVTVGATSATNVMPVSDMPVVPGKDNTDGKKPNIWYSLNGKIRAVNVPKVTKEKPTPPVKPTAPTKPTYETEKPLKPAPVAPNYEKEPTPPTRLEHHHHHH | glycan array binding signal (z-score) | [25] | -0.624
same | glycan array binding signal (z-score) | [26] | -0.582
